The record followed here is article PMC12724340.

Protein sequences, listed by entry. Tags and fused reporters are not part of them. Lines headed by an entry give the natural chain unless they say otherwise; changes in a name come on top. Chains listed by the source or under a name are the forms on record and can include a tag or linker.
Flag-tagged casein kinase 1 delta isoform CK1δ2 (human (cDNA from 293T cells)) (P48730, form named): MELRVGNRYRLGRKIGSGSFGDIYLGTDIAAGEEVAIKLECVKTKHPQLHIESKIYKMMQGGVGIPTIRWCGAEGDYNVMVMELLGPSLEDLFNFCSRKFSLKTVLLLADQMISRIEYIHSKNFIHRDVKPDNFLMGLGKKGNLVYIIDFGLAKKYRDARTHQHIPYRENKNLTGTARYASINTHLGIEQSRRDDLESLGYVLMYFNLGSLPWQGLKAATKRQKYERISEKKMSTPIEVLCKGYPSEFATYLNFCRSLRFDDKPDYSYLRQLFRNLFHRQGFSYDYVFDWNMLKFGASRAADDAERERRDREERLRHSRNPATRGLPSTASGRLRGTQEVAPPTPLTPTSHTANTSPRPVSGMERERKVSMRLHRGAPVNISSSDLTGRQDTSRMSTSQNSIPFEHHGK
UniProt P49674: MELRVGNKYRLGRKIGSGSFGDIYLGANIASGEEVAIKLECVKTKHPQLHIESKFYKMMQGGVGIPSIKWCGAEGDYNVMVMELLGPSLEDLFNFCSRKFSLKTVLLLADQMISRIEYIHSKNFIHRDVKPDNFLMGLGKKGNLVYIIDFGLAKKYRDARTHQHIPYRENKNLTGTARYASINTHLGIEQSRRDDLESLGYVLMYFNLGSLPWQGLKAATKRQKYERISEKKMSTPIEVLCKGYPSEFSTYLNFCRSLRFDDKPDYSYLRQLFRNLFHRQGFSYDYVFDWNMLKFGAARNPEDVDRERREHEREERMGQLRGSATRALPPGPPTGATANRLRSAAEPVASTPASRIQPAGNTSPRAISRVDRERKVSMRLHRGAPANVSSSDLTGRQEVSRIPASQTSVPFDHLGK
UniProt O00425: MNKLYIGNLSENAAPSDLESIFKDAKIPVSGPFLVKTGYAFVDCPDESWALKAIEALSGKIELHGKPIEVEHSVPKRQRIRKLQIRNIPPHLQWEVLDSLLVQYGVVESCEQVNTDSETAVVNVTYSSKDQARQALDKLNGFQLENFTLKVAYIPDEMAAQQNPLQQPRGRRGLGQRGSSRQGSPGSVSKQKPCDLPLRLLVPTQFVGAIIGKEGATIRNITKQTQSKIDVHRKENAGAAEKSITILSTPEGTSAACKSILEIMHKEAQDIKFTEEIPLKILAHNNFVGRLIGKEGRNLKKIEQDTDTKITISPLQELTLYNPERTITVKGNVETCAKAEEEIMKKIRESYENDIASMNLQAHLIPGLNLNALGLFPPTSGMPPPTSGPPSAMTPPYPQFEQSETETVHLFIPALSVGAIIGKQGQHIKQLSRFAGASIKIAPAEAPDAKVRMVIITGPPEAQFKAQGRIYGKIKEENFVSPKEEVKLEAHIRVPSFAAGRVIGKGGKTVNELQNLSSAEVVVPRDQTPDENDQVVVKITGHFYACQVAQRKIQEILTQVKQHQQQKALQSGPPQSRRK
UniProt Q9Y6M1: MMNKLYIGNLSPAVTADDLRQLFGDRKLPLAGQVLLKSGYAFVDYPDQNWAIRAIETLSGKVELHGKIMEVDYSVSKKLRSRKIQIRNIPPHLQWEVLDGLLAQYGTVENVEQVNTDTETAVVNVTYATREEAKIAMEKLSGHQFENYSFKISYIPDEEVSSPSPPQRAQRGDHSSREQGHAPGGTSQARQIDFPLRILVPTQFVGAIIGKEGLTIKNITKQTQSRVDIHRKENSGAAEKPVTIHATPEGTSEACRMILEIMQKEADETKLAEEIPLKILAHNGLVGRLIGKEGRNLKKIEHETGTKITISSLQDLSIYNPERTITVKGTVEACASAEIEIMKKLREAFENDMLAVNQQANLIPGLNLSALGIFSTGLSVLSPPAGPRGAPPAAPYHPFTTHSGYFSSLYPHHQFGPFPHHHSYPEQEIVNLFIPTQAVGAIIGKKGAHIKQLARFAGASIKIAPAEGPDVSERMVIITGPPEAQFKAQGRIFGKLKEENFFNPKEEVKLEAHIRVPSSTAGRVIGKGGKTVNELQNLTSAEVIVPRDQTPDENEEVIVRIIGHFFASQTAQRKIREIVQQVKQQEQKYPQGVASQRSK

One test has as its target Flag-tagged SHFL (UniProt Q9NUL5). The experiment in a line: co-IP; Flag-tagged SHFL variant transiently expressed in 293T cells; lysed in Co-IP buffer; anti-Flag M2 affinity gel; endogenous partners detected by western blotting with specific antibodies. (In general: Immunoblotting shows a protein as a band on a membrane.)
Another test has as its target Flag-tagged SHFL-T250E (UniProt Q9NUL5). Described as above.
In test [1] the target is Flag-tagged casein kinase 1 delta isoform CK1δ2 (human (cDNA from 293T cells)) (UniProt P48730). Nature of the test: co-IP; Flag-tagged CK1 isoform and Myc-tagged SHFL co-expressed in 293T cells, 48 h; Benzonase added to the lysates; anti-Flag affinity gel; western analysis.
The target in test [2] is Flag-tagged casein kinase 1 epsilon (CK1ε) (human (cDNA from 293T cells)) (UniProt P49674). Described as above.

Results are given in words; binding and its absence hold for the method and conditions named. Binding seen in cells or lysates may run through a third protein. Some entries that bind do so weakly or less than the wild type.

On to “endogenous IGF2BP3 (from UniProt O00425 1-579)”, for which the binding result with Flag-tagged SHFL and in the test with Flag-tagged SHFL-T250E was “binds” throughout.

“endogenous IGF2BP2 (from UniProt Q9Y6M1 1-599)”: the binding entry in the test with Flag-tagged SHFL and with Flag-tagged SHFL-T250E was “binds” throughout.

With “Myc-tagged SHFL (pLPCX-SHFL-Myc) (from UniProt Q9NUL5 1-291)”, the binding entry in test [1] and in test [2] was “binds” each time.

Regarding “endogenous casein kinase 1 epsilon (CK1ε) (from UniProt P49674 1-416) (enzyme)”, in the test with Flag-tagged SHFL, the binding result is recorded as “binds”.
